Reference: paper PMC7491320
No constants are given. Whether binding was seen depends on the method and setting.

Sequences of proteins named here, by UniProt entry; tags and fusion partners are left off. A change or cut given only in a name is not applied to a line headed by its entry.
UniProt P87173: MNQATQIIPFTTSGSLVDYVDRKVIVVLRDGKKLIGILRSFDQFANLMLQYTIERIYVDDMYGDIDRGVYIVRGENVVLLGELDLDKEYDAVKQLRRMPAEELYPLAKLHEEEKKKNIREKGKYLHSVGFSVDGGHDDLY
UniProt O42958: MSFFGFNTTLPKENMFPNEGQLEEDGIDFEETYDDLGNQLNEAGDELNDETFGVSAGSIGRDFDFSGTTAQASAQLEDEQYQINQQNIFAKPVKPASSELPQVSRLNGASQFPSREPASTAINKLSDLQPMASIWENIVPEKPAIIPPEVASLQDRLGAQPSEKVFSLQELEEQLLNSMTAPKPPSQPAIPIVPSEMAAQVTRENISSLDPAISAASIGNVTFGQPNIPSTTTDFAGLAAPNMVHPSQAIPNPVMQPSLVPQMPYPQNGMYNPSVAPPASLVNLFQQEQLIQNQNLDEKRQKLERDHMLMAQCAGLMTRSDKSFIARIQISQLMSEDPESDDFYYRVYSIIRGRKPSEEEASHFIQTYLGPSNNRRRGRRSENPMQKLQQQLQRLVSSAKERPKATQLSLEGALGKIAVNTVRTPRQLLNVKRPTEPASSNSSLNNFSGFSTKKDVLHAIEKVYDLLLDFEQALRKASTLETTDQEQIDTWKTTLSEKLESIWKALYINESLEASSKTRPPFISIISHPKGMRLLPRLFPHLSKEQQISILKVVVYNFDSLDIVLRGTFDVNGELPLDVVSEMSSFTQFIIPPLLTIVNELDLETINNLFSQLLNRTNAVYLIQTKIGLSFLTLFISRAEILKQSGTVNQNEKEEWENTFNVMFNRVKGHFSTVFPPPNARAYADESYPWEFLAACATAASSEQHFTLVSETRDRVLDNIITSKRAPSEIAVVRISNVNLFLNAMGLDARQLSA

Experiments:
[1] = molecular target: Lsm1–7 complex (S. pombe) (UniProt P87173); experiment: SEC-MALS; 20.6 µM PatMC/Lsm1–7 or Lsm1–7 with stoichiometric U15 RNA; KW-804 column; both purified
[2] = molecular target: PatMC/Lsm1–7 complex (S. pombe) (UniProt O42958); experiment: condition: only preparative size exclusion in 400 mM NaCl, before concentration; SEC; preparative size exclusion chromatography (Superdex 200 16/60) of PatMC/Lsm1–7 in 400 mM NaCl, 20 mM HEPES 7.0, 1 mM DTT, without RNA, before concentration; both purified

Substance	binding [1]	binding [2]
Lsm1–7 complex (from UniProt P87173 1-140; O94408 1-96; Q9Y7M4 1-93; O14352 1-121; O42978 1-80; Q9UUI1 1-75; O74499 1-113)	no binding (tested: 20.6 µM)	–
PatMC/Lsm1–7 complex (from UniProt O42958 296-754; P87173 1-140; O94408 1-96; Q9Y7M4 1-93; O14352 1-121; O42978 1-80; Q9UUI1 1-75; O74499 1-113)	–	no binding
